Test results: article doi:10.1101/513028
These are yes or no findings as the source states them, for the method shown. In cells and extracts the contact can be indirect. Some binding calls cover weakened binding; strength is not graded here. Sequences can lack the tags named with a protein.

By UniProt entry, the sequences of proteins in these tests, tags left out. Where a name states a change or a piece, a line headed by the entry shows the natural chain unless it says otherwise. Chains listed by the source or under a name are the forms on record and can include a tag or linker.
UniProt P40793: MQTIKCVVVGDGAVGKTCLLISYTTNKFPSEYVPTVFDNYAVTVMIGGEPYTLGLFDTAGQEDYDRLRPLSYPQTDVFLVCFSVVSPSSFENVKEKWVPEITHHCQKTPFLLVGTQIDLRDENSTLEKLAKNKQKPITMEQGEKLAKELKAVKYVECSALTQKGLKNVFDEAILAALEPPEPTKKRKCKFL
GST::Cdc42^V12 (P40793, form named): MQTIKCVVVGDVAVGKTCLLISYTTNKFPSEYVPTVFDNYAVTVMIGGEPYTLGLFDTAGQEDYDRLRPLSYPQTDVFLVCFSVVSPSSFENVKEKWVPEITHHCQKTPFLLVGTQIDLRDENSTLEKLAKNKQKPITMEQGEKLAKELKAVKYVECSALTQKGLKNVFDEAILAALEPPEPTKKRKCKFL

T1: Par6::Flag (wild type) (Drosophila) (UniProt O97111)
T1 sequence: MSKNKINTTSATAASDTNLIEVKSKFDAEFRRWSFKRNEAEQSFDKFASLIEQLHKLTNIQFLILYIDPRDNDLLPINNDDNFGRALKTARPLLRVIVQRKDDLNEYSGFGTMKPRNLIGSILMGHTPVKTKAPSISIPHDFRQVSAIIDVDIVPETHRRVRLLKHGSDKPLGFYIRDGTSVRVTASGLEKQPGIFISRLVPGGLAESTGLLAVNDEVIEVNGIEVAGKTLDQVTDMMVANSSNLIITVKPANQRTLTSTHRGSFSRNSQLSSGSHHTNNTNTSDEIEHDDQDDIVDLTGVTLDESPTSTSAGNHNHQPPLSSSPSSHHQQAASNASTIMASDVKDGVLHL

T2: Par6^K23A::Flag (Drosophila) (UniProt O97111)
T2 sequence: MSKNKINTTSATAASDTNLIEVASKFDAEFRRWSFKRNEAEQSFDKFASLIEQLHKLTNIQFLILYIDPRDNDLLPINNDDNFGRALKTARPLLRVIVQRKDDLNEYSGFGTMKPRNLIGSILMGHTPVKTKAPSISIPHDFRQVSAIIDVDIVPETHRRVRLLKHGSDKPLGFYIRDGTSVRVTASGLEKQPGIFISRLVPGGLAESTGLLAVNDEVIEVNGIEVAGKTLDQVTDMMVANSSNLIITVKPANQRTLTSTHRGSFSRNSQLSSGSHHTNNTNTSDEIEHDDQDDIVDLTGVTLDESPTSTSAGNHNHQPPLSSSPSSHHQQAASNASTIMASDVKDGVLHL

T3: Par6^KPLG170-173AAAA::Flag (Drosophila) (UniProt O97111)
T3 sequence: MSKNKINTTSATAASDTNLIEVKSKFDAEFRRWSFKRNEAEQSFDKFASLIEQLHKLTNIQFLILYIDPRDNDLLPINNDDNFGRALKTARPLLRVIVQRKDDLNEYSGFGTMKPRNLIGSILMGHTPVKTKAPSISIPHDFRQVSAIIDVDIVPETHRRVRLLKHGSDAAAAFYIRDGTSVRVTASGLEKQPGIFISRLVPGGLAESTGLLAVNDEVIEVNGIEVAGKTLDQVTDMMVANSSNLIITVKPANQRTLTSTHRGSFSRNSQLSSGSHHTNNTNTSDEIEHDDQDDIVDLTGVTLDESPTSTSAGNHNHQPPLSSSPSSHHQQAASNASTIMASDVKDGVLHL

T4: Par6^Δ139P::Flag (Drosophila) (UniProt O97111)
T4 sequence: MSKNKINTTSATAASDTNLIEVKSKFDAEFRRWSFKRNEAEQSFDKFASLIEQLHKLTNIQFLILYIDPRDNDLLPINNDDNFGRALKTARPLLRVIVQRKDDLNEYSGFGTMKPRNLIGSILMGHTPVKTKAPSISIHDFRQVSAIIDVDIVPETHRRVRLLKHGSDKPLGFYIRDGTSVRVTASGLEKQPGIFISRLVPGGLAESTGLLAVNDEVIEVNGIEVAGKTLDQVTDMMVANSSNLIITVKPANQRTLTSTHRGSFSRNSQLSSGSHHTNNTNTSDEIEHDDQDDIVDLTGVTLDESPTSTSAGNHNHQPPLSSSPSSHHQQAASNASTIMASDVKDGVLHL


Legend:
[1] = biological target: GST::Cdc42^V12 (Drosophila) (UniProt P40793); test: pull-down
[2] = biological target: T1, Par6::Flag (wild type) (Drosophila); test: co-IP
[3] = biological target: T2, Par6^K23A::Flag (Drosophila); test: co-IP
[4] = biological target: T3, Par6^KPLG170-173AAAA::Flag (Drosophila); test: co-IP
[5] = biological target: T4, Par6^Δ139P::Flag (Drosophila); test: co-IP

| binding [1] | Binder | other results |
| --- | --- | --- |
| no binding | Par6^Δ139P::Flag (protein, UniProt O97111 1-351) MSKNKINTTSATAASDTNLIEVKSKFDAEFRRWSFKRNEAEQSFDKFASLIEQLHKLTNIQFLILYIDPRDNDLLPINNDDNFGRALKTARPLLRVIVQRKDDLNEYSGFGTMKPRNLIGSILMGHTPVKTKAPSISIHDFRQVSAIIDVDIVPETHRRVRLLKHGSDKPLGFYIRDGTSVRVTASGLEKQPGIFISRLVPGGLAESTGLLAVNDEVIEVNGIEVAGKTLDQVTDMMVANSSNLIITVKPANQRTLTSTHRGSFSRNSQLSSGSHHTNNTNTSDEIEHDDQDDIVDLTGVTLDESPTSTSAGNHNHQPPLSSSPSSHHQQAASNASTIMASDVKDGVLHL | – |
| – | aPKC (endogenous) (enzyme, UniProt A1Z9X0 1-606) MQKMPSQILNDGSSVSLNSASMNMANTPNSITVKTAYNGQIIITTINKNISYEELCYEIRNICRFPLDQPFTIKWVDEENDPCTISTKMELDEAIRLYEMNFDSQLVIHVFPNVPQAPGLSCDGEDRSIYRRGARRWRKLYRVNGHIFQAKRFNRRAFCAYCQDRIWGLGRQGFKCIQCKLLVHKKCHKLVQKHCTDQPEPLVKERAEESSDPIPVPLPPLPYEAMSGGAEACETHDHAHIVAPPPPEDPLEPGTQRQYSLNDFELIRVIGRGSYAKVLMVELRRTRRIYAMKVIKKALVTDDEDIDWVQTEKHVFETASNHPFLVGLHSCFQTPSRLFFVIEFVRGGDLMYHMQRQRRLPEEHARFYAAEISLALNFLHEKGIIYRDLKLDNVLLDHEGHIKLTDYGMCKEGIRPGDTTSTFCGTPNYIAPEILRGEDYGFSVDWWALGVLLYEMLAGRSPFDLAGASENPDQNTEDYLFQVILEKTIRIPRSLSVRAASVLKGFLNKNPADRLGCHRESAFMDIVSHPFFKNMDWELLERKQVTPPFKPRLDSDRDLANFPPEFTGEAVQLTPDDDHVIDNIDQSEFEGFEYVNPLLMSLEDCV | binding [2]: binds; binding [3]: no binding; binding [4]: binds; binding [5]: binds |
| binds | Par6::Flag (wild type) (protein, UniProt O97111 1-351) MSKNKINTTSATAASDTNLIEVKSKFDAEFRRWSFKRNEAEQSFDKFASLIEQLHKLTNIQFLILYIDPRDNDLLPINNDDNFGRALKTARPLLRVIVQRKDDLNEYSGFGTMKPRNLIGSILMGHTPVKTKAPSISIPHDFRQVSAIIDVDIVPETHRRVRLLKHGSDKPLGFYIRDGTSVRVTASGLEKQPGIFISRLVPGGLAESTGLLAVNDEVIEVNGIEVAGKTLDQVTDMMVANSSNLIITVKPANQRTLTSTHRGSFSRNSQLSSGSHHTNNTNTSDEIEHDDQDDIVDLTGVTLDESPTSTSAGNHNHQPPLSSSPSSHHQQAASNASTIMASDVKDGVLHL | – |
| binds | Par6^KPLG170-173AAAA::Flag (protein, UniProt O97111 1-351) MSKNKINTTSATAASDTNLIEVKSKFDAEFRRWSFKRNEAEQSFDKFASLIEQLHKLTNIQFLILYIDPRDNDLLPINNDDNFGRALKTARPLLRVIVQRKDDLNEYSGFGTMKPRNLIGSILMGHTPVKTKAPSISIPHDFRQVSAIIDVDIVPETHRRVRLLKHGSDAAAAFYIRDGTSVRVTASGLEKQPGIFISRLVPGGLAESTGLLAVNDEVIEVNGIEVAGKTLDQVTDMMVANSSNLIITVKPANQRTLTSTHRGSFSRNSQLSSGSHHTNNTNTSDEIEHDDQDDIVDLTGVTLDESPTSTSAGNHNHQPPLSSSPSSHHQQAASNASTIMASDVKDGVLHL | – |
| binds | Par6^K23A::Flag (protein, UniProt O97111 1-351) MSKNKINTTSATAASDTNLIEVASKFDAEFRRWSFKRNEAEQSFDKFASLIEQLHKLTNIQFLILYIDPRDNDLLPINNDDNFGRALKTARPLLRVIVQRKDDLNEYSGFGTMKPRNLIGSILMGHTPVKTKAPSISIPHDFRQVSAIIDVDIVPETHRRVRLLKHGSDKPLGFYIRDGTSVRVTASGLEKQPGIFISRLVPGGLAESTGLLAVNDEVIEVNGIEVAGKTLDQVTDMMVANSSNLIITVKPANQRTLTSTHRGSFSRNSQLSSGSHHTNNTNTSDEIEHDDQDDIVDLTGVTLDESPTSTSAGNHNHQPPLSSSPSSHHQQAASNASTIMASDVKDGVLHL | – |
